These are yes or no findings as the source states them, for the method shown. In cells and extracts the contact can be indirect. Some binding calls cover weakened binding; strength is not graded here. Tags and fused reporters may be left off the sequences shown.
Target: T1, FLAG-RNF8 (rat) (UniProt Q4KLN8)
T1 sequence: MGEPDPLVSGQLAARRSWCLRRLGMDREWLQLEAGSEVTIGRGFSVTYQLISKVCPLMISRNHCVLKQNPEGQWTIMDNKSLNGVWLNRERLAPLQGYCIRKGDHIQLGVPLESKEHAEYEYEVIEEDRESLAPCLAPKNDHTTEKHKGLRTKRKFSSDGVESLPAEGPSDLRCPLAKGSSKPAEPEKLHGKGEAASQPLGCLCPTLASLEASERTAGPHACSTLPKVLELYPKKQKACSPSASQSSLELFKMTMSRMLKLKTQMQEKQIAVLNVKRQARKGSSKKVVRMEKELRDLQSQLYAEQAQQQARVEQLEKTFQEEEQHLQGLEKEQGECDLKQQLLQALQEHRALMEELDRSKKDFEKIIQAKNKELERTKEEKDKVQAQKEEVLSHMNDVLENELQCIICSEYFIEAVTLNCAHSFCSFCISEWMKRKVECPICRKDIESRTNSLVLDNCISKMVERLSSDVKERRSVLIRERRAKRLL
Test: co-IP; Lysates of Neuro2A cells constitutively expressing FLAG-RNF8 on FlagM2 agarose beads, 4 h; lysis buffer 50 mM Tris-HCl pH8.0, 150 mM NaCl, 20% glycerol, 1% Triton X-100; immunoblotting

Sequences of proteins named here, by UniProt entry; tags and fusion partners are left off.
UniProt Q4U2R1: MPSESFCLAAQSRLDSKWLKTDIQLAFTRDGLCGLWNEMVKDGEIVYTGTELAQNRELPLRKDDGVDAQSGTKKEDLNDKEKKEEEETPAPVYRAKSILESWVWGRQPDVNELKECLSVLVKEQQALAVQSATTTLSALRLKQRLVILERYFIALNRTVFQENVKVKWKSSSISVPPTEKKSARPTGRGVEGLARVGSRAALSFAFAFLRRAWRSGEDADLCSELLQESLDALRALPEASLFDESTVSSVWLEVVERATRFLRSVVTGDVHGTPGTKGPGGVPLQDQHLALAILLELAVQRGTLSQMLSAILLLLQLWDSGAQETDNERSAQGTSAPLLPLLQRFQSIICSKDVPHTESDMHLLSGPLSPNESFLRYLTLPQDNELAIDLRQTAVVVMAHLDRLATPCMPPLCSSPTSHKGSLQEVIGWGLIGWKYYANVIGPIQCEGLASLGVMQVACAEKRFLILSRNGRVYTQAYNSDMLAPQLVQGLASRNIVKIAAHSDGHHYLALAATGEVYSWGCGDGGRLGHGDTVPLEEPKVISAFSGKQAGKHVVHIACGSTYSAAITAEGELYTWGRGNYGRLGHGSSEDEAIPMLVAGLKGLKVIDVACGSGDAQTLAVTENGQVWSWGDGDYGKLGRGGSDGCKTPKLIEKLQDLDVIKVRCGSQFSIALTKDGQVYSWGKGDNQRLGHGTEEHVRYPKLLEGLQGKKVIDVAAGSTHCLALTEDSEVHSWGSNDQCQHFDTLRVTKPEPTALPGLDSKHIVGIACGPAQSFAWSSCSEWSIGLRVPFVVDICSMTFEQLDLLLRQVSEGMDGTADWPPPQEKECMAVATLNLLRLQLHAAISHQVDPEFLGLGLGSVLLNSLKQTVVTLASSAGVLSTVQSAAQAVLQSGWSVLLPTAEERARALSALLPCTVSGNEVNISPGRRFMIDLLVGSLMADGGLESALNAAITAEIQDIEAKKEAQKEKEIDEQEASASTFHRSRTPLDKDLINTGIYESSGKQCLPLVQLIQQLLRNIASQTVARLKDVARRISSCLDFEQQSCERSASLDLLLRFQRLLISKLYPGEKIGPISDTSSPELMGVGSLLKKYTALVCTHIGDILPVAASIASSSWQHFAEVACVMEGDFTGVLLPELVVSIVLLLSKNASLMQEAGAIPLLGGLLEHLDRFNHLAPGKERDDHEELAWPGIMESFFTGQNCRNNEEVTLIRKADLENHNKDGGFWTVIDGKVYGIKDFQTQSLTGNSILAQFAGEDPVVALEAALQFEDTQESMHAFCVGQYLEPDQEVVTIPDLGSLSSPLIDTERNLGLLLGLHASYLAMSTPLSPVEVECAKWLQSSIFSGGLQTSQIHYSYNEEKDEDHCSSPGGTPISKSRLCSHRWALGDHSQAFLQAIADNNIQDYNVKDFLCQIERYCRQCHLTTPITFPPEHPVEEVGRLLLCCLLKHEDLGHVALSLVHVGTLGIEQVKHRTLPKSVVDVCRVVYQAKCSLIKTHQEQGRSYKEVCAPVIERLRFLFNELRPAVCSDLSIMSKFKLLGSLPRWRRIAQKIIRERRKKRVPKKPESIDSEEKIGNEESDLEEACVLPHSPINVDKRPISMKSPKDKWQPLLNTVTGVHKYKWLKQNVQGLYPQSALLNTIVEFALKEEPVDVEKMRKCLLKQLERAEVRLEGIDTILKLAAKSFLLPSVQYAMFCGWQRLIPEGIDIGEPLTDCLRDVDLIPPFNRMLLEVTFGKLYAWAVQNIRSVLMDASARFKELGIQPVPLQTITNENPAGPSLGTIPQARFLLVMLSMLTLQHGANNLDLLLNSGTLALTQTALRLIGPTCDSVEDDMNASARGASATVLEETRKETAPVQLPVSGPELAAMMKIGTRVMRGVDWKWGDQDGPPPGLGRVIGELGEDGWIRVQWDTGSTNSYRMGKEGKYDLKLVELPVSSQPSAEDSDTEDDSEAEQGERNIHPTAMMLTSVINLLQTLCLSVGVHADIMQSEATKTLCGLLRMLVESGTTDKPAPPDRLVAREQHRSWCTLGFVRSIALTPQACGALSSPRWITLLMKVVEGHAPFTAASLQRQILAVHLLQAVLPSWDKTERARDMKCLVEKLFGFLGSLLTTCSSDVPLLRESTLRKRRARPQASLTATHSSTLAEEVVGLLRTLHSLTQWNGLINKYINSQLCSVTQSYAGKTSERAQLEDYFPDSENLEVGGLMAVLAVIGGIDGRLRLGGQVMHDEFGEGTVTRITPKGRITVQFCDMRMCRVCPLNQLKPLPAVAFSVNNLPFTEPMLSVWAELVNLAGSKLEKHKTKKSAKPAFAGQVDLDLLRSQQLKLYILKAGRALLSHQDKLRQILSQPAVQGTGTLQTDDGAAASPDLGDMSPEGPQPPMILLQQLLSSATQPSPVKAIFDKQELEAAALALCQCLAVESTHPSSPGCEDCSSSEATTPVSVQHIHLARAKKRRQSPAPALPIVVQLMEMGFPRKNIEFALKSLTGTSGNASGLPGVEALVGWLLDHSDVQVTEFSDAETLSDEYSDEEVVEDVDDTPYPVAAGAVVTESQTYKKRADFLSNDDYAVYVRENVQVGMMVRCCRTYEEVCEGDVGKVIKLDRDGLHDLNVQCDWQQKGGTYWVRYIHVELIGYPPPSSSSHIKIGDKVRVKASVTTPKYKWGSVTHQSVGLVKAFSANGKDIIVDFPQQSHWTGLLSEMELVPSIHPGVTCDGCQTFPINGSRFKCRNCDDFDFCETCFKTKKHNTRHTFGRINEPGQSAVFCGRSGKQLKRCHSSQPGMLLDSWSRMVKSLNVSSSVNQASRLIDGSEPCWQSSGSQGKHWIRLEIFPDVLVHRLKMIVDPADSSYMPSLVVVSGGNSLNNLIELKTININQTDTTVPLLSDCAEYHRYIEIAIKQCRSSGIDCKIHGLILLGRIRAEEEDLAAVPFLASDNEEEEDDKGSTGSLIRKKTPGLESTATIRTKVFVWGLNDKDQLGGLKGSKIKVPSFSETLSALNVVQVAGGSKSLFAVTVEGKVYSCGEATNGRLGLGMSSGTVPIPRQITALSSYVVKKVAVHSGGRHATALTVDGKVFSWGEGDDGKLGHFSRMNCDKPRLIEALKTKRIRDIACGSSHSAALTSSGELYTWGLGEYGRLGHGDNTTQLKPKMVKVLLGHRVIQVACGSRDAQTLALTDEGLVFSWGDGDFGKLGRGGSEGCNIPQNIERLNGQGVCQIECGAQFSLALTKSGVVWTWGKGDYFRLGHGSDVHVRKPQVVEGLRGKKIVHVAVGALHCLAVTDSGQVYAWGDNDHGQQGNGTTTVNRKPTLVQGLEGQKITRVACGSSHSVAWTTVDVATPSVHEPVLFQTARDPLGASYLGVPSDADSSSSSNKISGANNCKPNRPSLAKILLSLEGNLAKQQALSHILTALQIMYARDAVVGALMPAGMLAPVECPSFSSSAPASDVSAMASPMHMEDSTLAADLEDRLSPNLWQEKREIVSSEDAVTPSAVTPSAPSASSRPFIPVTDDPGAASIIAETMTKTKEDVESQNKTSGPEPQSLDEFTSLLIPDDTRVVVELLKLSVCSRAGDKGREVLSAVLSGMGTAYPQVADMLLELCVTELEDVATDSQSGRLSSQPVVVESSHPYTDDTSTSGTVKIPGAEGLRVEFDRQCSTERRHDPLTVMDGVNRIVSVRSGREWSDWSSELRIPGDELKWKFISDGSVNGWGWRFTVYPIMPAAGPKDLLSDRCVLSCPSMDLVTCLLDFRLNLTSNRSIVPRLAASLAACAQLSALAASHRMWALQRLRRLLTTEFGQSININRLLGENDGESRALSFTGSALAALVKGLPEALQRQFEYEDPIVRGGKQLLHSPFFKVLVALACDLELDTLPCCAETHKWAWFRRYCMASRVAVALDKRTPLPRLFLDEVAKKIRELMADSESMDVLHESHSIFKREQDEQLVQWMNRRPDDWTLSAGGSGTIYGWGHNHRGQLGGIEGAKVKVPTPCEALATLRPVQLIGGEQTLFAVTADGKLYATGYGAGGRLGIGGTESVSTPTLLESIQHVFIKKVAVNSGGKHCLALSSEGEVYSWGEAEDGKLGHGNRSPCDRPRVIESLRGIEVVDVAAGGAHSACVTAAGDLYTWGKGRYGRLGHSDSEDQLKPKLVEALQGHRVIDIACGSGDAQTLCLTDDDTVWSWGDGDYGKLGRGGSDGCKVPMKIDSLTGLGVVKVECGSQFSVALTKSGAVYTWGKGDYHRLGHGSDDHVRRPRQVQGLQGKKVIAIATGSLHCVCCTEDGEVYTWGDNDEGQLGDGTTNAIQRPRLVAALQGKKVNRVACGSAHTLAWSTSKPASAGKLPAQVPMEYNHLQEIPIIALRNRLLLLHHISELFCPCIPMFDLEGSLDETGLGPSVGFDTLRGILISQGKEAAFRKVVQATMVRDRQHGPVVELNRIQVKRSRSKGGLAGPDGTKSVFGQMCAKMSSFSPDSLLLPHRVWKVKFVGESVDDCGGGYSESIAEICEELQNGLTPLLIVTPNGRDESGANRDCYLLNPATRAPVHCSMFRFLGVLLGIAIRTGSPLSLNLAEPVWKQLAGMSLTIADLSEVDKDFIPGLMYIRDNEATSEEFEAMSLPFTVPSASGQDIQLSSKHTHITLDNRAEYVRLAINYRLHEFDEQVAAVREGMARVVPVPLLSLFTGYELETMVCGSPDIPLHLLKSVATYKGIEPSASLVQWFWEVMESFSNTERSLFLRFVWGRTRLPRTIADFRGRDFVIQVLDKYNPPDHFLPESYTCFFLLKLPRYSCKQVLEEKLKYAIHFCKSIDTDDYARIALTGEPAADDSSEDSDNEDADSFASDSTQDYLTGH
UniProt Q5NCX5: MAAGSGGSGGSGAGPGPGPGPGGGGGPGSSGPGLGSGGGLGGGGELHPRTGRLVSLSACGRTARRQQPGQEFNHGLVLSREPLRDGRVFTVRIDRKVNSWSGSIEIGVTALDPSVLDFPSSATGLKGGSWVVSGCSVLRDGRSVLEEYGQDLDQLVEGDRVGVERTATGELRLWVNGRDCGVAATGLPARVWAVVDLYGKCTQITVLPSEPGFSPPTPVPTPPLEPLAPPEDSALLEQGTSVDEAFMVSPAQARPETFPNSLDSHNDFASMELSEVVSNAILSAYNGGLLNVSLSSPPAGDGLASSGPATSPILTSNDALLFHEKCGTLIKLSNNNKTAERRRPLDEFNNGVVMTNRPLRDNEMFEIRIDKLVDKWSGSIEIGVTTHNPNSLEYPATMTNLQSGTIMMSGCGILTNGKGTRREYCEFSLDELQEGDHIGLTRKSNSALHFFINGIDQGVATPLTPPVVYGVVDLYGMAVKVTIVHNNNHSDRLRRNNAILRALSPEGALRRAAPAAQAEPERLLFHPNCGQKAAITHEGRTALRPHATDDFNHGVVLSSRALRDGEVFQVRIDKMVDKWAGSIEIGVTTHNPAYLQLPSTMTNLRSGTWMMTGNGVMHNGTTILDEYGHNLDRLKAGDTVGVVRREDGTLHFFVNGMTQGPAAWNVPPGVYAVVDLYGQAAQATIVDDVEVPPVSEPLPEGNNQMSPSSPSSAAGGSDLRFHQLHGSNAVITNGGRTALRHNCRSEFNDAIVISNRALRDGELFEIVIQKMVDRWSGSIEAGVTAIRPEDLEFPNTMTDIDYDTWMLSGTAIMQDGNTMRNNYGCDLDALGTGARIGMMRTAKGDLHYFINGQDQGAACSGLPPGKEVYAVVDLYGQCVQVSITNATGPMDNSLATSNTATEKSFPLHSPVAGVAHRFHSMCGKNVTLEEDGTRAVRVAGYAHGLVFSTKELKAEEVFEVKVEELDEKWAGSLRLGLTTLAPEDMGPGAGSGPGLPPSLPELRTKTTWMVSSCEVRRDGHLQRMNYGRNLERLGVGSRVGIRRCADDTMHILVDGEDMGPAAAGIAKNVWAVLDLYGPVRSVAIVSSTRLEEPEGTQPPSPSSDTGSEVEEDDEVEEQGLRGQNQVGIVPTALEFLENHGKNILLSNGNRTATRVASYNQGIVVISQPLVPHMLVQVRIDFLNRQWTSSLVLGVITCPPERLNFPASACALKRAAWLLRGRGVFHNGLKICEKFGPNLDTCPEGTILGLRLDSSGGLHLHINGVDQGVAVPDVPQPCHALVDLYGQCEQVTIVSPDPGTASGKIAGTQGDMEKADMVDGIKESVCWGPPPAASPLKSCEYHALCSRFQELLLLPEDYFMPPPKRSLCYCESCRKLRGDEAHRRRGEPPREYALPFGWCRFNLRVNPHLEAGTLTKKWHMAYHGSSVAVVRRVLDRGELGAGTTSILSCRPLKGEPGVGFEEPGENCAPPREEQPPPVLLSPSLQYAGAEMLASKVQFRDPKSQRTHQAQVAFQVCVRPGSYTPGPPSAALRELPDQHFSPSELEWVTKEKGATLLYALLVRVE

binding | Substance
binds | HERC2 (endogenous, Neuro2A) (from UniProt Q4U2R1 1-4836)
binds | NEURL4 (endogenous, Neuro2A) (from UniProt Q5NCX5 1-1563)

From publication PMC5668370
